Laboratory results: the supplement of paper PMC10849652
The other results are listed elsewhere or left out.

Sequences of proteins named here, by UniProt entry; tags and fusion partners are left off. A change or cut given only in a name is not applied to a line headed by its entry.
UniProt Q96SZ6: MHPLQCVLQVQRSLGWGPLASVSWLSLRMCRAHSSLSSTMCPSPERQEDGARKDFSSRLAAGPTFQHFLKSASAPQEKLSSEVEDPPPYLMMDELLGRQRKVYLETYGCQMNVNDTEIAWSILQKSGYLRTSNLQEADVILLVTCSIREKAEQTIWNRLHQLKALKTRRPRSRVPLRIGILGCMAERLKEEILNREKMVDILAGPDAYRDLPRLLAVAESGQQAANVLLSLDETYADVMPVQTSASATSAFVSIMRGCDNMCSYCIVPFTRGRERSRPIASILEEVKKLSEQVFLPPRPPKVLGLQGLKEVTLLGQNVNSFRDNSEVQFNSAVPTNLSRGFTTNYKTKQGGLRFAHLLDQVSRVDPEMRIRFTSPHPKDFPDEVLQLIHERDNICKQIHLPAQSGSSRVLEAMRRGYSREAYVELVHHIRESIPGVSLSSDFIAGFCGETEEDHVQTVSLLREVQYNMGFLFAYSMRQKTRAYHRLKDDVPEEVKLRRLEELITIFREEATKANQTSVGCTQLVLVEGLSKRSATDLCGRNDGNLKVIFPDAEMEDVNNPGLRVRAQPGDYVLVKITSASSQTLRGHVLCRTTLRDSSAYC
UniProt P49454: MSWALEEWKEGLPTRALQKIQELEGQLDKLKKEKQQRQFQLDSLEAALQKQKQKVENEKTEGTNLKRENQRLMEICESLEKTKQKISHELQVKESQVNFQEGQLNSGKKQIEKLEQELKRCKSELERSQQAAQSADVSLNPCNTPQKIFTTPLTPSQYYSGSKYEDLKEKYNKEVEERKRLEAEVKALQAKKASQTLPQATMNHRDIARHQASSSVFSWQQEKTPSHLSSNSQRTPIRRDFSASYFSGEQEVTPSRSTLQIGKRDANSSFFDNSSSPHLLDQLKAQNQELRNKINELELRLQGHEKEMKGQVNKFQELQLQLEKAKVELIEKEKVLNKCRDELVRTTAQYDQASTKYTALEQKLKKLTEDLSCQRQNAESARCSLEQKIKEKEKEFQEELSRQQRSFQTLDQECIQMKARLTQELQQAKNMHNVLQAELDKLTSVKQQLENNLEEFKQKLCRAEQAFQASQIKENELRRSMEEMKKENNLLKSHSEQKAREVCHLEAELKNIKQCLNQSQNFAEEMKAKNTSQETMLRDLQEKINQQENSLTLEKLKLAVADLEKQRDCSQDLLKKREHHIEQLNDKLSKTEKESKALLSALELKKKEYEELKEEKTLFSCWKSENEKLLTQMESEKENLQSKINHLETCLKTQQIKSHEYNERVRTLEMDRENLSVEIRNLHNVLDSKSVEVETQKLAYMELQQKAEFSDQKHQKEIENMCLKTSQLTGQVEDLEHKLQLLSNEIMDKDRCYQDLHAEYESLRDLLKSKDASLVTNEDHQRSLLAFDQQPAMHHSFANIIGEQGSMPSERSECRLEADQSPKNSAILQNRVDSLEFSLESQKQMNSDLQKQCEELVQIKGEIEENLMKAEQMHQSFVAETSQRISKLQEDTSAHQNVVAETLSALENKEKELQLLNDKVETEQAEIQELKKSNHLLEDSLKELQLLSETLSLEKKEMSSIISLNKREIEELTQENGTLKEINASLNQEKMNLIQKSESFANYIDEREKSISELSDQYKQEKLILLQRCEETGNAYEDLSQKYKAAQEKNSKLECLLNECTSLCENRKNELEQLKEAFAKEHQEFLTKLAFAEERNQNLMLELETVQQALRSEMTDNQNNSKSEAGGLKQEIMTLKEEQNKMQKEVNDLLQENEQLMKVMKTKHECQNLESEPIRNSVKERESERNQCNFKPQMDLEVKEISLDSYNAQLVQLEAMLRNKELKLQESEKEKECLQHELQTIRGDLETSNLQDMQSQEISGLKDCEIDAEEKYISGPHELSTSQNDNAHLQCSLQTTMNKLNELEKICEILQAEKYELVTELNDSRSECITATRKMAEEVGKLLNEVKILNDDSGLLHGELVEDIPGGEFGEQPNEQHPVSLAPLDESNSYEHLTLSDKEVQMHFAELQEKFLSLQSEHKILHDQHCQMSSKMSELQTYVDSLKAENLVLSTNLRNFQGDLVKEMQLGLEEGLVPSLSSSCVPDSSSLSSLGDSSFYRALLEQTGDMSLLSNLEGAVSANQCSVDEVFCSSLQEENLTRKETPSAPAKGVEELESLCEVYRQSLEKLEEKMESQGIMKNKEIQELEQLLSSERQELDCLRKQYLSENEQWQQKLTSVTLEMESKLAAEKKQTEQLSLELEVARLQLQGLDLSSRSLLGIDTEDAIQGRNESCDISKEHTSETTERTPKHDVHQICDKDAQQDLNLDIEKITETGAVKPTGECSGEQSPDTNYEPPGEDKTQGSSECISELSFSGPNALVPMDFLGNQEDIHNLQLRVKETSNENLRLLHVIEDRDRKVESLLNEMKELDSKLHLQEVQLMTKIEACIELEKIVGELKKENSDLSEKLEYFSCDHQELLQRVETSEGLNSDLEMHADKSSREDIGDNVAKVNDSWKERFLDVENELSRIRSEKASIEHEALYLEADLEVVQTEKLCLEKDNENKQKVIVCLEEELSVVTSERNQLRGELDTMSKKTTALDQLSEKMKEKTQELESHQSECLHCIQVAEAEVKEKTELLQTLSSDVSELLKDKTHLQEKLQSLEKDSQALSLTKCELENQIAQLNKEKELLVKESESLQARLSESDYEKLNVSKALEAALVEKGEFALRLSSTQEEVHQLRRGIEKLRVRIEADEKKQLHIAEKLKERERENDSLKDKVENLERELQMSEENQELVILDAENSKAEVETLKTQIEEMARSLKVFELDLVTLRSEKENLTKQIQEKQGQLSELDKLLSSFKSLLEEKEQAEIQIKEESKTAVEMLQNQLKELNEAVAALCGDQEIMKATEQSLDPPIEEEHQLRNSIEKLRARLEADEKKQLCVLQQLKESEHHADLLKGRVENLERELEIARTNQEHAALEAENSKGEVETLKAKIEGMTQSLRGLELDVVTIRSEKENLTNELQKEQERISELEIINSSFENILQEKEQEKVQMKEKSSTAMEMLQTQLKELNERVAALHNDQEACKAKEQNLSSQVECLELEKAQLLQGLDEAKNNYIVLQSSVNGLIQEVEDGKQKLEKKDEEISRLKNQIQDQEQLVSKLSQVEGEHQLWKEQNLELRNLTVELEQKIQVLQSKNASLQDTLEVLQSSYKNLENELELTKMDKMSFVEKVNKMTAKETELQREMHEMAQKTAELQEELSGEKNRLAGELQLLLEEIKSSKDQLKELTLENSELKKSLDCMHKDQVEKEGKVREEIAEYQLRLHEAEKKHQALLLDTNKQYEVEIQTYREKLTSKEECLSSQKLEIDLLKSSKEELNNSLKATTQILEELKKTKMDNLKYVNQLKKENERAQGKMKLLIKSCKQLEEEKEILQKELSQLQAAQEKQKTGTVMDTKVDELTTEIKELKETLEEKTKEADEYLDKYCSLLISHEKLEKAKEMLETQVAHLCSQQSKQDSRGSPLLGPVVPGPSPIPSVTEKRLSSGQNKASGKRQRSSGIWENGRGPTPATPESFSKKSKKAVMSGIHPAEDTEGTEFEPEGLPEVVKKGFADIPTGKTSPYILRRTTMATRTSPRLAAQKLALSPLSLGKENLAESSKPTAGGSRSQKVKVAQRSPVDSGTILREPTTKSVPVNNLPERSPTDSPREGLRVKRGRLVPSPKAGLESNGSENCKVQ
UniProt O60508: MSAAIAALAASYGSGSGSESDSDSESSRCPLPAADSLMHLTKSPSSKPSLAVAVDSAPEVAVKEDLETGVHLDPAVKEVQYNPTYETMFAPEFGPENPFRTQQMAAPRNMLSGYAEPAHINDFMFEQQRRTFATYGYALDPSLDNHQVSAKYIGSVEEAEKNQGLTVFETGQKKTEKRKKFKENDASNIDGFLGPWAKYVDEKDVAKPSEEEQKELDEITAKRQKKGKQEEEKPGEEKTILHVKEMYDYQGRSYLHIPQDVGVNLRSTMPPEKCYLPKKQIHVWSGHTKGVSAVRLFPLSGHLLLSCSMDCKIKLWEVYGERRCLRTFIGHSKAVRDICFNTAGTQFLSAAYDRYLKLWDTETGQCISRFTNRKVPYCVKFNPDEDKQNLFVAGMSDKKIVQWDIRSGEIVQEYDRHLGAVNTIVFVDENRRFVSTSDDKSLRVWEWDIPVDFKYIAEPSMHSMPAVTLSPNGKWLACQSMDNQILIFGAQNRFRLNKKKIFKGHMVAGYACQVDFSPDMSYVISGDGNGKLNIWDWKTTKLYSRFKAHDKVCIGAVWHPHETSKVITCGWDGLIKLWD
UniProt Q96SN8: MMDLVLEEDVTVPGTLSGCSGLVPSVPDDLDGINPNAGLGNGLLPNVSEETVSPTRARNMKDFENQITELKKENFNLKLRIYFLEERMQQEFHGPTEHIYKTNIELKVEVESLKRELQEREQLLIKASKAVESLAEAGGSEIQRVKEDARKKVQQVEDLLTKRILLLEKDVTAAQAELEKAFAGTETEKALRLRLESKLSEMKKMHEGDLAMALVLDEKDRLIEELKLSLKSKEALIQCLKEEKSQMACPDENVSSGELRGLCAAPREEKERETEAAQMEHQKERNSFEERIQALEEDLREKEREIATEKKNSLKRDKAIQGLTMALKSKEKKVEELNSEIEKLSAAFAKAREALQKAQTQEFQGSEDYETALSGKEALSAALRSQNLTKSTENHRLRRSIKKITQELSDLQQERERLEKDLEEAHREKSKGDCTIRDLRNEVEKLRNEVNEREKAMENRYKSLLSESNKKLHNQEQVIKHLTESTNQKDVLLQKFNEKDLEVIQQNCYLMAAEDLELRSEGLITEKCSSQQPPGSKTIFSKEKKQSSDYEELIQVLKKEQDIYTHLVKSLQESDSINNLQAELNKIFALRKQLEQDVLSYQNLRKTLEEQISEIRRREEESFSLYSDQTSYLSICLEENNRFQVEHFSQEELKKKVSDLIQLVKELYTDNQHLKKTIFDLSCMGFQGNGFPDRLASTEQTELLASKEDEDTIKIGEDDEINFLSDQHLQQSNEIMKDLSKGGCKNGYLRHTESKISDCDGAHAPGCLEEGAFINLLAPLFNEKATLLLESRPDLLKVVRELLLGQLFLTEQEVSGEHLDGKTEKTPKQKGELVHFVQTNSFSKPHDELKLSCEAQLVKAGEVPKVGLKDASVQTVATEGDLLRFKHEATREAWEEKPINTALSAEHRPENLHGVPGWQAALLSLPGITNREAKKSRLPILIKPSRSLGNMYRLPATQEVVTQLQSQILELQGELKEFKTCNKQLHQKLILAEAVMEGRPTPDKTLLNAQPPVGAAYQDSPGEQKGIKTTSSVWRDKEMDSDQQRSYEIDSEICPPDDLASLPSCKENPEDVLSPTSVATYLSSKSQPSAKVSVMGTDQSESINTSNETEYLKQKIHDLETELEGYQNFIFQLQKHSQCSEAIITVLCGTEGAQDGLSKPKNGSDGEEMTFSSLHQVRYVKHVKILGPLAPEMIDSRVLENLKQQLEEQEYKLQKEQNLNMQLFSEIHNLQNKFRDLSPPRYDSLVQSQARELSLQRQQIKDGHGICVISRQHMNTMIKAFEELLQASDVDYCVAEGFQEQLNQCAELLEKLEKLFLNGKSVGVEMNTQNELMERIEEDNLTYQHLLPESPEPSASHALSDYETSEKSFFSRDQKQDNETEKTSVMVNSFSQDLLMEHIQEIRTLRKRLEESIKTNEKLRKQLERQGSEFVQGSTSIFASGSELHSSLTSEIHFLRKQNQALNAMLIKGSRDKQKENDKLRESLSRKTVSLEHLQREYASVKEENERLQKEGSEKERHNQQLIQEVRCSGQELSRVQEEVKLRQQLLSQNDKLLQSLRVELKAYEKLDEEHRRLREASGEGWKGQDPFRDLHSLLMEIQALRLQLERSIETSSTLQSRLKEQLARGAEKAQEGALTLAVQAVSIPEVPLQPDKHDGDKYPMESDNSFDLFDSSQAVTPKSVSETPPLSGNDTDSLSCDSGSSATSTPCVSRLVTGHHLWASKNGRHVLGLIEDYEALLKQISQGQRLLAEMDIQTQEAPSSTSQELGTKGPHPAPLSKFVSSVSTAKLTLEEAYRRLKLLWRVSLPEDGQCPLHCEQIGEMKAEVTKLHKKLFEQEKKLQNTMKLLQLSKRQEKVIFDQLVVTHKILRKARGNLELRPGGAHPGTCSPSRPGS
UniProt P49918: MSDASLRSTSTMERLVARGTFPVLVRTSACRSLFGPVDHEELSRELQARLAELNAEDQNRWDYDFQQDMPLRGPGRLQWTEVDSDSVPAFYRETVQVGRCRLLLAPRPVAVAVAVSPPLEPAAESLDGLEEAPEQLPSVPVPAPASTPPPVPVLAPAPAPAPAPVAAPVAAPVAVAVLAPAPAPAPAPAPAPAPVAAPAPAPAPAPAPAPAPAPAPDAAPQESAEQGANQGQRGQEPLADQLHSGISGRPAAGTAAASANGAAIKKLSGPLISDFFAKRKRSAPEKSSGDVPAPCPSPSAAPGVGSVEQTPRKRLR

Key:
Assay in all cases: log2 fold change, soluble protein after heating vs DMSO (PISA); higher = thermal stabilisation; K562 lysate, 10 uM; active = over 0.2 and 3.5 SD of the protein, either way, in both replicates (recomputed)
[1] = compound: C1=CC=C(C=C1)[C@H](COC2=CC3=C(C=C2)NC(=O)N3)NC(=O)C4=CC=CN(C4=O)CC5=CC(=C(C=C5)F)F
In short: (§1)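 The values are log-two fold changes in thermal stability compared with solvent controls and come from duplicates. They were obtained by TMTpro 16plex LC-MS/MS, with channel sums equalised, on the supernatant after 21,000xg for 90 min. That supernatant came from crude K562 extract at 1 mg/mL protein treated with 10 μM compound for 30 min, heated for 3 min across 48°C-58°C, pooled and brought to 0.5% NP-40 at 4°C.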

[2] = compound: CC1=C(SC2=C1C(=N[C@H](C3=NN=C(N32)C)CC(=O)N)C4=CC=C(C=C4)Cl)C
In short: as §1

[3] = compound: CC1=C2C(=CC=C1)N=C(N(C2=O)C3=CC=CC=C3C)CN4C=NC5=C(N=CN=C54)N
In short: as §1

[4] = compound: Cc1sc2c(c1C)C(c1ccc(Cl)cc1)=N[C@@H](CC(=O)OC(C)(C)C)c1nnc(C)n1-2
In short: as §1

[5] = compound: c1ccc([C@@H]2C[C@H]2NC2CCNCC2)cc1
In short: as §1

Measured: log2 fold change

CDCP1 (UniProt Q9H5V8)
inactive: [1] 0.006 | [2] -0.015 | [3] -0.026 | [4] 0.028 | [5] -0.04

CEFIP (UniProt Q711Q0)
inactive: [1] 0.033 | [2] 0.061 | [3] -0.007 | [5] -0.015

CDK5RAP1 (UniProt Q96SZ6)
inactive: [2] -0.117 | [3] 0.05 | [4] -0.023 | [5] -0.004
active: [1] 0.266

CEP250 (UniProt Q9BV73)
inactive: [1] 0.017 | [2] -0.002 | [3] 0.015 | [4] -0.024 | [5] -0.014

CDC37 (UniProt K7EL68)
inactive: [1] 0 | [2] -0.182 | [3] -0.019 | [5] -0.044

CEP131 (UniProt Q9UPN4)
inactive: [1] -0.084 | [2] 0.054 | [3] 0.007 | [4] 0.121 | [5] -0.101

CDK11B (UniProt P21127)
inactive: [1] -0.035 | [2] 0.029 | [3] 0.005 | [4] 0.035 | [5] -0.001

CDC42 (UniProt P60953)
inactive: [1] 0.048 | [2] -0.046 | [3] 0.043 | [4] 0.073 | [5] 0.045

CENPV (UniProt Q7Z7K6)
inactive: [1] 0.059 | [2] -0.217 | [3] -0.201 | [5] 0.166

CERT isoform 3 (UniProt Q9Y5P4)
inactive: [1] -0.013 | [2] 0.007 | [3] 0.025 | [4] 0.015 | [5] 0.027

CENPF (UniProt P49454)
inactive: [1] -0.01 | [2] -0.007 | [3] 0.013 | [4] -0.024 | [5] -0.002

CDC40 (UniProt O60508)
inactive: [1] 0.036 | [2] 0.003 | [3] -0.099 | [4] 0.099 | [5] -0.03

CDK2 (UniProt P24941)
inactive: [1] 0.006 | [2] 0.004 | [3] -0.039 | [4] 0.076 | [5] -0.028

CDCA2 (UniProt Q69YH5)
inactive: [1] 0.142 | [2] -0.01 | [3] 0.078 | [4] -0.052 | [5] 0.077

CDK5RAP2 (UniProt Q96SN8)
inactive: [1] 0.018 | [2] 0.038 | [3] 0.041 | [4] -0.026 | [5] 0.072

CFAP298 (UniProt P57076)
inactive: [1] 0.036 | [2] 0.005 | [3] -0.011 | [4] 0.032 | [5] 0.026

CDKN1C (UniProt P49918)
inactive: [1] 0.035 | [2] -0.012 | [3] 0.185 | [4] 0.094 | [5] 0.025

Pulled one by one from the entries so far, two records:
CDKN1C (UniProt P49918)
inactive: [1] 0.035 | [2] -0.012 | [3] 0.185 | [4] 0.094 | [5] 0.025

CDK5RAP2 (UniProt Q96SN8)
inactive: [1] 0.018 | [2] 0.038 | [3] 0.041 | [4] -0.026 | [5] 0.072
